Here are results for 1 molecule from PMC8964741.

The target of the test is T1, Myc-tagged MCCC2 (methylcrotonoyl-CoA carboxylase subunit 2) (UniProt Q9HCC0).
T1 sequence: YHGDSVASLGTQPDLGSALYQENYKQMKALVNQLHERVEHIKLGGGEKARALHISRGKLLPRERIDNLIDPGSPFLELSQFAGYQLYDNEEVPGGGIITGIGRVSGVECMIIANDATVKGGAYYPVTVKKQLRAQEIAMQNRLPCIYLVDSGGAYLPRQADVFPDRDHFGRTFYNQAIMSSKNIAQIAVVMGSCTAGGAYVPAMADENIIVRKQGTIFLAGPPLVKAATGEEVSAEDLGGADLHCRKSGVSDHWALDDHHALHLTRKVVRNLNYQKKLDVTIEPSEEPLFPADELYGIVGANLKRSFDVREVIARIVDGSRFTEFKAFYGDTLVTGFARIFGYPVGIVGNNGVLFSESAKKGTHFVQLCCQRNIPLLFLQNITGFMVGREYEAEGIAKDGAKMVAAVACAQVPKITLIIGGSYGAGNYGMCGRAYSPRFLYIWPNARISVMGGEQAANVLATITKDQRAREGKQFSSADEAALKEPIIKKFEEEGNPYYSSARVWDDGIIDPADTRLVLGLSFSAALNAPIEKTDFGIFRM
Kind of test: co-IP; HEK-293T co-transfected with Myc-tagged MCCC2 and Flag-tagged ACOX2, 36 h; Pierce IP Lysis Buffer; 200 μg lysate on anti-Myc agarose beads; immunoblotting. Background: Immunoblotting shows a protein as a band on a membrane.

Results are given in words; binding and its absence hold for the method and conditions named. Binding seen in cells or lysates may run through a third protein. Some binding calls cover weakened binding; strength is not graded here. Sequences can lack the tags named with a protein.

B1: Flag-tagged ACOX2 (pEnter-ACOX2-Flag-His) (enzyme, UniProt Q99424 1-681)
chain: MGSPVHRVSLGDTWSRQMHPDIESERYMQSFDVERLTNILDGGAQNTALRRKVESIIHSYPEFSCKDNYFMTQNERYKAAMRRAFHIRLIARRLGWLEDGRELGYAYRALSGDVALNIHRVFVRALRSLGSEEQIAKWDPLCKNIQIIATYAQTELGHGTYLQGLETEATYDAATQEFVIHSPTLTATKWWPGDLGRSATHALVQAQLICSGARRGMHAFIVPIRSLQDHTPLPGIIIGDIGPKMDFDQTDNGFLQLNHVRVPRENMLSRFAQVLPDGTYVKLGTAQSNYLPMVVVRVELLSGEILPILQKACVIAMRYSVIRRQSRLRPSDPEAKVLDYQTQQQKLFPQLAISYAFHFLAVSLLEFFQHSYTAILNQDFSFLPELHALSTGMKAMMSEFCTQGAEMCRRACGGHGYSKLSGLPSLVTKLSASCTYEGENTVLYLQVARFLVKSYLQTQMSPGSTPQRSLSPSVAYLTAPDLARCPAQRAADFLCPELYTTAWAHVAVRLIKDSVQHLQTLTQSGADQHEAWNQTTVIHLQAAKVHCYYVTVKGFTEALEKLENEPAIQQVLKRLCDLHAIHGILTNSGDFLHDAFLSGAQVDMARTAYLDLLRLIRKDAILLTDAFDFTDQCLNSALGCYDGNVYERLFQWAQKSPTNTQENPAYEEYIRPLLQSWRSKL
For the molecule B1, the binding entry is on record as “binds”.
